Test [1] concerns the target Flag-rTrkB-FL (rat) (UniProt Q63604). In words: co-IP; HEK293 cells co-transfected; lysed 48 h later in TNE buffer (10 mM Tris, 150 mM NaCl, 1 mM EDTA, 1% NP-40, 10% glycerol); precipitated with anti-FLAG M2-Sepharose overnight at 4 °C; immunoblot; with or without rising amounts of CC1-EGFP.
The target is the same in test [2]. The test is described as above. The source holds these as a separate data set.
For test [3], the target named is endogenous TrkB (rat (endogenous in Wistar rat hippocampal neurons and BLA tissue)) (UniProt Q63604). In words: co-IP; endogenous proteins; DIV6 rat hippocampal neurons infected with EGFP or CC1-EGFP lentivirus, lysed in TNE buffer 48 h later; mouse anti-JIP3 antibody and protein G-Sepharose; immunoblot for TrkB, JIP3 and GFP.

By UniProt entry, the sequences of proteins in these tests, tags left out. Residues count along the entry.
UniProt Q63604, residues 32-821: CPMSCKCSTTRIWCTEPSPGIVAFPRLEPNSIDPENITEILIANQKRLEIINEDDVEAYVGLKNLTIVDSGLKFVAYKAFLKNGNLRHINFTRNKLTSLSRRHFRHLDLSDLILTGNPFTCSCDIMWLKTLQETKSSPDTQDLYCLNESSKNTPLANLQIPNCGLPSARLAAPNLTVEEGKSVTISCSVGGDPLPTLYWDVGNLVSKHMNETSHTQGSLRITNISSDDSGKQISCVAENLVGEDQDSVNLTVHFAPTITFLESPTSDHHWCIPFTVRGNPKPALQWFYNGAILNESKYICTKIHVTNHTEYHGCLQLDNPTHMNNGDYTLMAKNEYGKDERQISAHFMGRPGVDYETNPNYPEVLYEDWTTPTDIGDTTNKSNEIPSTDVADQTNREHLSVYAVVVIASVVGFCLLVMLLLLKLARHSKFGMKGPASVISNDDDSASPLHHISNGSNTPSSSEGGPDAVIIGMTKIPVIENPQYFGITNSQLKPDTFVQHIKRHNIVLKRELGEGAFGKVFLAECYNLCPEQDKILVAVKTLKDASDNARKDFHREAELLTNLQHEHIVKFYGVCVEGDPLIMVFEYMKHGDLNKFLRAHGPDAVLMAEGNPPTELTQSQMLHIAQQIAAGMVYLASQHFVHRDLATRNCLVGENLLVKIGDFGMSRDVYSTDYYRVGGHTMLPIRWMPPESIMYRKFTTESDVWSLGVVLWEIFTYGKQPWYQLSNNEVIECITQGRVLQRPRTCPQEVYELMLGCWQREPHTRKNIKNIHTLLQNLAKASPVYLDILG
UniProt Q07866: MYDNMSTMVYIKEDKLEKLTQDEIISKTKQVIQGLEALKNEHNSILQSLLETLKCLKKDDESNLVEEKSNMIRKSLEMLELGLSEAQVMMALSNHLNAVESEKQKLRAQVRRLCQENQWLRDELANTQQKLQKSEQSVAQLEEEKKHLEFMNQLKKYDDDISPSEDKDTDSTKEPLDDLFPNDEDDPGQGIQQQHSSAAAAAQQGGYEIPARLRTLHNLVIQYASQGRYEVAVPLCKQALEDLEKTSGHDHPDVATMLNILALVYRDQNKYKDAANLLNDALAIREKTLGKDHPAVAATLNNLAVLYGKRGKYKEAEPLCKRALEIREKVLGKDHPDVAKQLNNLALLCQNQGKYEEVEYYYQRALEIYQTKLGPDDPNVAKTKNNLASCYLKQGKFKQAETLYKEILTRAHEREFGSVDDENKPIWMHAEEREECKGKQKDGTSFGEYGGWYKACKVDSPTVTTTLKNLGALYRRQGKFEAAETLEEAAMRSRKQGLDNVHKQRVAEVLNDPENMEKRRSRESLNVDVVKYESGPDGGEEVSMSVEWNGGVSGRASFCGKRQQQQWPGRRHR

Where two headings read alike, the source gives them in different places. No constants are given. Whether binding was seen depends on the method and setting. Binding seen in cells or lysates may run through a third protein. Some results given as binding are weak or reduced against the parent protein; the word gives no strength. For some of these results: Tags and fused reporters may be left off the sequences shown.

Results on 4 molecules are retold here after publication PMC5550851.

For Myc-hKLC1 (from UniProt Q07866 1-573), the binding entry with Flag-rTrkB-FL (rat) [1] is on record as “binds”.

B1: CC1-EGFP (coiled-coil domain 1 of JIP3 fused with EGFP), in HEK293 cells (domain or fragment)
chain: QLSGEQEVLKGELEAAKQAKVKLENRIKELEEELKRVKSEAVTARREPREEVEDVSSYLCTELDKIPMAQ
For B1, the binding result in the test with Flag-rTrkB-FL (rat) [2] is recorded as “binds”.

B2: CC1-EGFP expressed from virus in rat neurons (domain or fragment)
chain: QLSGEQEVLKGELEAAKQAKVKLENRIKELEEELKRVKSEAVTARREPREEVEDVSSYLCTELDKIPMAQ
As to B2, the binding result in test [3] was “binds”.

B3: Myc-mJIP3 (protein, UniProt Q9ESN9 1-1337)
chain: MMEIQMDEGGGVVVYQDDYCSGSVMSERVSGLAGSIYREFERLIHCYDEEVVKELMPLVVNVLENLDSVLSENQEHEVELELLREDNEQLLTQYEREKALRKQAEEKFIEFEDALEQEKKELQIQVEHYEFQTRQLELKAKNYADQISRLEERESEMKKEYNALHQRHTEMIQTYVEHIERSKMQQVGGSGQTESSLPGRSRKERPTSLNVFPLADGMVRAQMGGKLVPAGDHWHLSDLGQLQSSSSYQCPNDEMSESGQSSAAATPSTTGTKSNTPTSSVPSAAVTPLNESLQPLGDYVSVTKNNKQAREKRNSRNMEVQVTQEMRNVSIGMGSSDEWSDVQDIIDSTPELDVCPETRLERTGSSPTQGIVNKAFGINTDSLYHELSTAGSEVIGDVDEGADLLGEFSVRDDFFGMGKEVGNLLLENSQLLETKNALNVVKNDLIAKVDQLSGEQEVLKGELEAAKQAKVKLENRIKELEEELKRVKSEAVTARREPREEVEDVSSYLCTELDKIPMAQRRRFTRVEMARVLMERNQYKERLMELQEAVRWTEMIRASREHPSVQEKKKSTIWQFFSRLFSSSSSPPPAKRSYPSVNIHYKSPTAAGFSQRRSHALCQISAGSRPLEFFPDDDCTSSARREQKREQYRQVREHVRNDDGRLQACGWSLPAKYKQLSPNGGQEDTRMKNVPVPVYCRPLVEKDPSTKLWCAAGVNLSGWKPHEEDSSNGPKPVPGRDPLTCDREGEGEPKSTHPSPEKKKAKETPEADATSSRVWILTSTLTTSKVVIIDANQPGTIVDQFTVCNAHVLCISSIPAASDSDYPPGEMFLDSDVNPEDSGADGVLAGITLVGCATRCNVPRSNCSSRGDTPVLDKGQGDVATTANGKVNPSQSTEEATEATEVPDPGPSESEATTVRPGPLTEHVFTDPAPTPSSSTQPASENGSESNGTIVQPQVEPSGELSTTTSSAAPTMWLGAQNGWLYVHSAVANWKKCLHSIKLKDSVLSLVHVKGRVLVALADGTLAIFHRGEDGQWDLSNYHLMDLGHPHHSIRCMAVVNDRVWCGYKNKVHVIQPKTMQIEKSFDAHPRRESQVRQLAWIGDGVWVSIRLDSTLRLYHAHTHQHLQDVDIEPYVSKMLGTGKLGFSFVRITALLIAGNRLWVGTGNGVVISIPLTETVVLHRGQLLGLRANKTSPTSGEGTRPGGIIHVYGDDSSDKAASSFIPYCSMAQAQLCFHGHRDAVKFFVSVPGNVLATLNGSVLDSPSEGPGPAAPAADAEGQKLKNALVLSGGEGYIDFRIGDGEDDETEECAGDVNQTKPSLSKAERSHIIVWQVSYTPE
As for B3, in the test with Flag-rTrkB-FL (rat) [2], the binding result was “binds”.
